Results deposited as PubChem BioAssay AID652272 (Drosophila RNAi Screening Center, 2013).

Screen: 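Finding fly genes that regulate Hedgehog signal transduction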 (primary screen)
Cells: Drosophila clone 8 (Cl8) cells
Reagent: long dsRNA against Drosophila genes
Detection: 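Plate reader light from a firefly reporter under a ptc promoter fragment that responds to Hedgehog, with Renilla light as transfection reference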
Scale: firefly Hh reporter signal: higher = more ptc reporter light; Renilla reference signal: higher = more Renilla control light
Active means: 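Called a hit if the two-replicate mean z-score lies below -2 or above +3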
Calls: active = hit: reporter lowered or raised; inactive = not a hit
The screen tested about 21,000 reagents; this is an unselected part of those with a known target gene and a result. In the full data, 503 (2.4%) were called active. 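Raw plate light values, not normalised; calls rest on replicate z-scores that were not deposited; hits include reporter decreases as well as increases.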 A number with no mark means an inactive call. Reagents against one gene are numbered here. Reagent sequences are not shown. The record does not give: the amount of reagent, the time to read-out.

For CG13989 the deposit lists firefly Hh reporter signal, replicate 1 = 1.14e5; firefly Hh reporter signal, replicate 2 = 59649; Renilla reference signal, replicate 1 = 3051; Renilla reference signal, replicate 2 = 5798.
With knock-down of CG31106, the screen gave firefly Hh reporter signal, replicate 1 = 4.87e5; firefly Hh reporter signal, replicate 2 = 63709; Renilla reference signal, replicate 1 = 25085; Renilla reference signal, replicate 2 = 4979.
Cyp12a5 gave firefly Hh reporter signal, replicate 1 = 4.48e5; firefly Hh reporter signal, replicate 2 = 71382; Renilla reference signal, replicate 1 = 25192; Renilla reference signal, replicate 2 = 1799.
With knock-down of CG10738 the results were firefly Hh reporter signal, replicate 1 = 52482; firefly Hh reporter signal, replicate 2 = 35297; firefly Hh reporter signal, replicate 3 = 40544; Renilla reference signal, replicate 1 = 4172; Renilla reference signal, replicate 2 = 3171.
CG32532 #1 scored firefly Hh reporter signal, replicate 1 = 1.33e5; firefly Hh reporter signal, replicate 2 = 3.34e5; Renilla reference signal, replicate 1 = 5507; Renilla reference signal, replicate 2 = 14448.
Against CG32532 #2, the values are firefly Hh reporter signal, replicate 1 = 1.24e5; firefly Hh reporter signal, replicate 2 = 2.31e5; Renilla reference signal, replicate 1 = 4506; Renilla reference signal, replicate 2 = 9164.
CG32532 #3 showed firefly Hh reporter signal, replicate 1 = 1.67e5; firefly Hh reporter signal, replicate 2 = 3.59e5; Renilla reference signal, replicate 1 = 6346; Renilla reference signal, replicate 2 = 15157.
CG5767 scored firefly Hh reporter signal, replicate 1 = 1.19e5; firefly Hh reporter signal, replicate 2 = 69461; Renilla reference signal, replicate 1 = 2989; Renilla reference signal, replicate 2 = 5111.
Silencing of Cln7 came out at: firefly Hh reporter signal, replicate 1 = 1.15e5; firefly Hh reporter signal, replicate 2 = 64272; Renilla reference signal, replicate 1 = 4968; Renilla reference signal, replicate 2 = 2935.

Part of the list above, set out differently.
CG10738
- firefly Hh reporter signal, replicate 1: 52482
- firefly Hh reporter signal, replicate 2: 35297
- firefly Hh reporter signal, replicate 3: 40544
- Renilla reference signal, replicate 1: 4172
- Renilla reference signal, replicate 2: 3171

CG32532 #1
- firefly Hh reporter signal, replicate 1: 1.33e5
- firefly Hh reporter signal, replicate 2: 3.34e5
- Renilla reference signal, replicate 1: 5507
- Renilla reference signal, replicate 2: 14448

More records follow.
Knock-down of CG3740 came out at: firefly Hh reporter signal, replicate 1 = 55650; firefly Hh reporter signal, replicate 2 = 2.32e5; Renilla reference signal, replicate 1 = 1689; Renilla reference signal, replicate 2 = 6996.
For CG15701, the values are firefly Hh reporter signal, replicate 1 = 54832; firefly Hh reporter signal, replicate 2 = 34386; Renilla reference signal, replicate 1 = 1785; Renilla reference signal, replicate 2 = 2820.
With knock-down of CG10005, the record shows firefly Hh reporter signal, replicate 1 = 1.07e5; firefly Hh reporter signal, replicate 2 = 90267; Renilla reference signal, replicate 1 = 4066; Renilla reference signal, replicate 2 = 1980.
For MTF-1 #1, the values are firefly Hh reporter signal, replicate 1 = 1.04e5; firefly Hh reporter signal, replicate 2 = 2.02e5; Renilla reference signal, replicate 1 = 2944; Renilla reference signal, replicate 2 = 8480.
MTF-1 #2 gave firefly Hh reporter signal, replicate 1 = 17269; firefly Hh reporter signal, replicate 2 = 57275; firefly Hh reporter signal, replicate 3 = 8.24e5; Renilla reference signal, replicate 1 = 5819; Renilla reference signal, replicate 2 = 4273.
